# Source: PubChem BioAssay AID186 (DTP/NCI, 2004)
# Values are animals surviving of animals treated; these mice carried no tumour. Survivors were counted at the toxicity check, usually on the fifth day, unless a day is given; later deaths do not show. Schedules are NCI's codes, read here as Q, the interval in days (D) or hours (H), X, the number of doses.
# System: B6D2F1 mice, nontumored toxicity test, survival
# Assay: NCI In Vivo Anticancer Drug Screen. Data for tumor model Nontumored Animals (Toxicity Test) in B6D2F1 (BDF1) mice
# Settings: vehicle: saline
smiles,measurement,setting,value
COc1cc2c(c(OC)c1OC)-c1ccc(OC)c(=O)cc1[C@@H](NC(C)=O)CC2,survivor count,"dose: 0.25 mg/kg/injection, schedule: Q01DX005 (oral)",7 of 7
same,survivor count,"dose: 0.25 mg/kg/injection, schedule: Q04DX003 (ip)",8 of 8
same,survivor count,"dose: 0.5 mg/kg/injection, schedule: Q01DX001 (iv)",8 of 8
same,survivor count,"dose: 0.5 mg/kg/injection, schedule: Q01DX005 (oral)",8 of 8
same,survivor count,"dose: 0.5 mg/kg/injection, schedule: Q04DX003 (ip)",8 of 8
same,survivor count,"dose: 0.5 mg/kg/injection, schedule: Q08DX002 (ip)",8 of 8
same,survivor count,"dose: 1.0 mg/kg/injection, schedule: Q01DX001 (ip)",8 of 8
same,survivor count,"dose: 1.0 mg/kg/injection, schedule: Q01DX001 (iv)",8 of 8
same,survivor count,"dose: 1.0 mg/kg/injection, schedule: Q01DX005 (oral)",8 of 8
same,survivor count,"dose: 1.0 mg/kg/injection, schedule: Q04DX003 (ip)",8 of 8
same,survivor count,"dose: 1.0 mg/kg/injection, schedule: Q08DX002 (ip)",8 of 8
same,survivor count,"dose: 2.0 mg/kg/injection, schedule: Q01DX001 (ip)",8 of 8
same,survivor count,"dose: 2.0 mg/kg/injection, schedule: Q01DX001 (iv)",8 of 8
same,survivor count,"dose: 2.0 mg/kg/injection, schedule: Q01DX001 (oral)",8 of 8
same,survivor count,"dose: 2.0 mg/kg/injection, schedule: Q01DX005 (oral)",8 of 8
same,survivor count,"dose: 2.0 mg/kg/injection, schedule: Q04DX003 (ip)",8 of 8
same,survivor count,"dose: 2.0 mg/kg/injection, schedule: Q08DX002 (ip)",8 of 8
same,survivor count,"dose: 4.0 mg/kg/injection, schedule: Q01DX001 (ip)",5 of 8
same,survivor count,"dose: 4.0 mg/kg/injection, schedule: Q01DX001 (iv)",5 of 8
same,survivor count,"dose: 4.0 mg/kg/injection, schedule: Q01DX001 (oral)",7 of 8
same,survivor count,"dose: 4.0 mg/kg/injection, schedule: Q01DX005 (oral)",3 of 8
same,survivor count,"dose: 4.0 mg/kg/injection, schedule: Q04DX003 (ip)",4 of 8
same,survivor count,"dose: 4.0 mg/kg/injection, schedule: Q08DX002 (ip)",8 of 8
same,survivor count,"dose: 8.0 mg/kg/injection, schedule: Q01DX001 (ip)",1 of 8
same,survivor count,"dose: 8.0 mg/kg/injection, schedule: Q01DX001 (iv)",1 of 8
same,survivor count,"dose: 8.0 mg/kg/injection, schedule: Q01DX001 (oral)",8 of 8
same,survivor count,"dose: 8.0 mg/kg/injection, schedule: Q08DX002 (ip)",3 of 8
same,survivor count,"dose: 16.0 mg/kg/injection, schedule: Q01DX001 (oral)",2 of 8
same,survivor count,"dose: 32.0 mg/kg/injection, schedule: Q01DX001 (oral)",0 of 8
same,survivor count,"dose: 31.2 micrograms/kg/injection, schedule: Q03HX024 (ip)",8 of 8
same,survivor count,"dose: 62.5 micrograms/kg/injection, schedule: Q01DX005 (iv)",8 of 8
same,survivor count,"dose: 62.5 micrograms/kg/injection, schedule: Q01DX009 (ip)",8 of 8
same,survivor count,"dose: 62.5 micrograms/kg/injection, schedule: Q03HX016 (ip)",8 of 8
same,survivor count,"dose: 62.5 micrograms/kg/injection, schedule: Q03HX024 (ip)",8 of 8
same,survivor count,"dose: 125.0 micrograms/kg/injection, schedule: Q01DX005 (iv)",8 of 8
same,survivor count,"dose: 125.0 micrograms/kg/injection, schedule: Q01DX009 (ip)",8 of 8
same,survivor count,"dose: 125.0 micrograms/kg/injection, schedule: Q03HX008 (ip)",8 of 8
same,survivor count,"dose: 125.0 micrograms/kg/injection, schedule: Q03HX016 (ip)",7 of 8
same,survivor count,"dose: 125.0 micrograms/kg/injection, schedule: Q03HX024 (ip)",8 of 8
same,survivor count,"dose: 250.0 micrograms/kg/injection, schedule: Q01DX005 (iv)",8 of 8
same,survivor count,"dose: 250.0 micrograms/kg/injection, schedule: Q01DX009 (ip)",8 of 8
same,survivor count,"dose: 250.0 micrograms/kg/injection, schedule: Q03HX008 (ip)",7 of 8
same,survivor count,"dose: 250.0 micrograms/kg/injection, schedule: Q03HX016 (ip)",7 of 8
same,survivor count,"dose: 250.0 micrograms/kg/injection, schedule: Q03HX024 (ip)",8 of 8
same,survivor count,"dose: 500.0 micrograms/kg/injection, schedule: Q01DX005 (iv)",8 of 8
same,survivor count,"dose: 500.0 micrograms/kg/injection, schedule: Q01DX009 (ip)",8 of 8
same,survivor count,"dose: 500.0 micrograms/kg/injection, schedule: Q03HX008 (ip)",0 of 8
same,survivor count,"dose: 500.0 micrograms/kg/injection, schedule: Q03HX016 (ip)",0 of 8
same,survivor count,"dose: 500.0 micrograms/kg/injection, schedule: Q03HX024 (ip)",0 of 8
same,survivor count,"dose: 1000.0 micrograms/kg/injection, schedule: Q01DX005 (iv)",8 of 8
same,survivor count,"dose: 1000.0 micrograms/kg/injection, schedule: Q01DX009 (ip)",2 of 8
same,survivor count,"dose: 1000.0 micrograms/kg/injection, schedule: Q03HX008 (ip)",0 of 8
same,survivor count,"dose: 1000.0 micrograms/kg/injection, schedule: Q03HX016 (ip)",0 of 8
COC(OC(CO)C(O)S(=O)(=O)O)C(O)S(=O)(=O)O (centres undefined),survivor count,"dose: 12.5 mg/kg/injection, schedule: Q03HX008 (ip)",8 of 8
same,survivor count,"dose: 12.5 mg/kg/injection, schedule: Q03HX016 (ip)",8 of 8
same,survivor count,"dose: 12.5 mg/kg/injection, schedule: Q03HX024 (ip)",8 of 8
same,survivor count,"dose: 25.0 mg/kg/injection, schedule: Q03HX008 (ip)",8 of 8
same,survivor count,"dose: 25.0 mg/kg/injection, schedule: Q03HX016 (ip)",8 of 8
same,survivor count,"dose: 25.0 mg/kg/injection, schedule: Q03HX024 (ip)",8 of 8
same,survivor count,"dose: 50.0 mg/kg/injection, schedule: Q01DX009 (ip)",8 of 8
same,survivor count,"dose: 50.0 mg/kg/injection, schedule: Q01DX009 (sc)",8 of 8
same,survivor count,"dose: 50.0 mg/kg/injection, schedule: Q03HX008 (ip)",8 of 8
same,survivor count,"dose: 50.0 mg/kg/injection, schedule: Q03HX016 (ip)",8 of 8
same,survivor count,"dose: 50.0 mg/kg/injection, schedule: Q03HX024 (ip)",8 of 8
same,survivor count,"dose: 100.0 mg/kg/injection, schedule: Q01DX001 (ip)",8 of 8
same,survivor count,"dose: 100.0 mg/kg/injection, schedule: Q01DX009 (ip)",8 of 8
same,survivor count,"dose: 100.0 mg/kg/injection, schedule: Q01DX009 (oral)",8 of 8
same,survivor count,"dose: 100.0 mg/kg/injection, schedule: Q01DX009 (sc)",8 of 8
same,survivor count,"dose: 100.0 mg/kg/injection, schedule: Q03HX008 (ip)",7 of 8
same,survivor count,"dose: 100.0 mg/kg/injection, schedule: Q03HX016 (ip)",8 of 8
same,survivor count,"dose: 100.0 mg/kg/injection, schedule: Q03HX024 (ip)",7 of 8
same,survivor count,"dose: 100.0 mg/kg/injection, schedule: Q04DX003 (ip)",8 of 8
same,survivor count,"dose: 100.0 mg/kg/injection, schedule: Q08DX002 (ip)",8 of 8
same,survivor count,"dose: 200.0 mg/kg/injection, schedule: Q01DX001 (ip)",8 of 8
same,survivor count,"dose: 200.0 mg/kg/injection, schedule: Q01DX009 (ip)",8 of 8
same,survivor count,"dose: 200.0 mg/kg/injection, schedule: Q01DX009 (oral)",8 of 8
same,survivor count,"dose: 200.0 mg/kg/injection, schedule: Q01DX009 (sc)",8 of 8
same,survivor count,"dose: 200.0 mg/kg/injection, schedule: Q04DX003 (ip)",8 of 8
same,survivor count,"dose: 200.0 mg/kg/injection, schedule: Q08DX002 (ip)",8 of 8
same,survivor count,"dose: 400.0 mg/kg/injection, schedule: Q01DX001 (ip)",8 of 8
same,survivor count,"dose: 400.0 mg/kg/injection, schedule: Q01DX009 (ip)",7 of 8
same,survivor count,"dose: 400.0 mg/kg/injection, schedule: Q01DX009 (oral)",8 of 8
same,survivor count,"dose: 400.0 mg/kg/injection, schedule: Q01DX009 (sc)",8 of 8
same,survivor count,"dose: 400.0 mg/kg/injection, schedule: Q04DX003 (ip)",8 of 8
same,survivor count,"dose: 400.0 mg/kg/injection, schedule: Q08DX002 (ip)",8 of 8
same,survivor count,"dose: 800.0 mg/kg/injection, schedule: Q01DX001 (ip)",8 of 8
same,survivor count,"dose: 800.0 mg/kg/injection, schedule: Q01DX009 (oral)",7 of 8
same,survivor count,"dose: 800.0 mg/kg/injection, schedule: Q04DX003 (ip)",8 of 8
same,survivor count,"dose: 800.0 mg/kg/injection, schedule: Q08DX002 (ip)",8 of 8
